Assay results as given in paper doi:10.1101/2020.10.28.358580.
No constants are given. Whether binding was seen depends on the method and setting. In cells and extracts the contact can be indirect. A yes stands for co-enrichment or nearness to the bait. Other partners may have been found.

By UniProt entry, the sequences of proteins in these tests, tags left out. Where a name states a change or a piece, a line headed by the entry shows the natural chain unless it says otherwise.
UniProt P13569: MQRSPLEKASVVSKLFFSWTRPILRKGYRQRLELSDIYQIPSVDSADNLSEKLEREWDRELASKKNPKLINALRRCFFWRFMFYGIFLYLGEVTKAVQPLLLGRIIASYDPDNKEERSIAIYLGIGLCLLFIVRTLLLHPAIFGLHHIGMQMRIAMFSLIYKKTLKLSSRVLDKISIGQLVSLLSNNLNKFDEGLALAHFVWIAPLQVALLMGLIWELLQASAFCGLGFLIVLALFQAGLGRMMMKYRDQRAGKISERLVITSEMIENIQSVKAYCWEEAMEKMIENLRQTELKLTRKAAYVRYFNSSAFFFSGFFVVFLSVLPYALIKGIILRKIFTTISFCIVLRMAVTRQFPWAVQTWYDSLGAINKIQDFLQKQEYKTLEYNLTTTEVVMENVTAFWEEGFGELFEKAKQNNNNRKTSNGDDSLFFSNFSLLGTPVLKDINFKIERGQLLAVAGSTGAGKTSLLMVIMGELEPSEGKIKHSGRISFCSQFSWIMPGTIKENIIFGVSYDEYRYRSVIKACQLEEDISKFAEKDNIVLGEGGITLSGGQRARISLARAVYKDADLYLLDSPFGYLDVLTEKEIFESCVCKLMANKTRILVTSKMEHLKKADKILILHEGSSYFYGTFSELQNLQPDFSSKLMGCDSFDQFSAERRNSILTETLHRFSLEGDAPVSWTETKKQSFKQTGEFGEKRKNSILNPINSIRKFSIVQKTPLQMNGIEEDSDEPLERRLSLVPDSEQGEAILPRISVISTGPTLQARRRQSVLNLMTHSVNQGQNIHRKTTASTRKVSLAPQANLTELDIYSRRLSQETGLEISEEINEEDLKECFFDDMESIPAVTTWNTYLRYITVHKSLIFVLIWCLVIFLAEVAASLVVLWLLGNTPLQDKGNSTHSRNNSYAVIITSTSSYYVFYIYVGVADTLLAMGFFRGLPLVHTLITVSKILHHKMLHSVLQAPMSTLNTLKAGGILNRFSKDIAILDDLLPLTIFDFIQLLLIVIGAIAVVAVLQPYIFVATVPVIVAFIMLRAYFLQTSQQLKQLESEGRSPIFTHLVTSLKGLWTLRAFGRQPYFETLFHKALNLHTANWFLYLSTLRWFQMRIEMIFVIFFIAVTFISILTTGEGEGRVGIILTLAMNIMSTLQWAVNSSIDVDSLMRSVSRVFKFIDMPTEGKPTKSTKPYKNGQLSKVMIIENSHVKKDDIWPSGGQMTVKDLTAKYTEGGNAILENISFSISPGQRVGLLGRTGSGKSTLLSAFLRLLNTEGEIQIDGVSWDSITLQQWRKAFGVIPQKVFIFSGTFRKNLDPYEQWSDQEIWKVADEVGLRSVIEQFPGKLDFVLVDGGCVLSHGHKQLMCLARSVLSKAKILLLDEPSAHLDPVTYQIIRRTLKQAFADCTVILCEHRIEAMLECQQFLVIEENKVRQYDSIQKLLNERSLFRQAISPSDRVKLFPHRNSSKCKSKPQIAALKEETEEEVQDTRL

Target: T1, JB12-APEX (UniProt Q9NXW2)
T1 sequence: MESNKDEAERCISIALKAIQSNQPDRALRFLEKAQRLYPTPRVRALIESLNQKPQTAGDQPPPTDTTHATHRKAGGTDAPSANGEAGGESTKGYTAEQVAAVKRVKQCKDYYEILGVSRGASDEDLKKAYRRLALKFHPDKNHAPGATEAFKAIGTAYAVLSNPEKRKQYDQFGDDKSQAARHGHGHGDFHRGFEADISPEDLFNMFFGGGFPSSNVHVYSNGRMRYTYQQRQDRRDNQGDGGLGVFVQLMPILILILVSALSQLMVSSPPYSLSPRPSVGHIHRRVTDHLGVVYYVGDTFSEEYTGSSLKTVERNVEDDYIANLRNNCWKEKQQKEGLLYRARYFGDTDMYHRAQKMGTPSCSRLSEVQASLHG
Assay: proximity labelling

With “N1303K-CFTR (from UniProt P13569 1-1480)” the binding was “binds”.
